No constants are given. Whether binding was seen depends on the method and setting. In cells and extracts the contact can be indirect. Here binding means that the protein was enriched with, or labelled near, the bait; the list need not be complete. For part of these data: A no says only that the protein was not detected with the bait.

Sequences of proteins named here, by UniProt entry; tags and fusion partners are left off.
UniProt P30153: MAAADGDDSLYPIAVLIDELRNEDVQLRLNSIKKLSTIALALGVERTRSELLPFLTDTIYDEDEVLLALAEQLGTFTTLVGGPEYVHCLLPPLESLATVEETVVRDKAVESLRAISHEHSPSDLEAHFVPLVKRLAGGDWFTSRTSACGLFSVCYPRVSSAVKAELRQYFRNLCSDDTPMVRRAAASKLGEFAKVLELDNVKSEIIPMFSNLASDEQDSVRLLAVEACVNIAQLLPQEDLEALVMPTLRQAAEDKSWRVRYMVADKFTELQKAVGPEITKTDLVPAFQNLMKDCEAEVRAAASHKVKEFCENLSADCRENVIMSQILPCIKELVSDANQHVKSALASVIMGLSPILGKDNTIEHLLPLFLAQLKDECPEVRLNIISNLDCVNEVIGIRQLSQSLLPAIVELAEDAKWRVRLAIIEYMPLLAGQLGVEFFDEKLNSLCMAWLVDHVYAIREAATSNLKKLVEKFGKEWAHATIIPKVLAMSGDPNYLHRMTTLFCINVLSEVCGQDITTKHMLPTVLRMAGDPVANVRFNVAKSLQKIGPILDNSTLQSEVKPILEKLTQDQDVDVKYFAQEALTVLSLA

Sequences and labels used below:
B1: STRN (protein, UniProt O43815 1-780)
chain: MDEQAGPGVFFSNNHPGAGGAKGLGPLAEAAAAGDGAAAAGAARAQYSLPGILHFLQHEWARFEVERAQWEVERAELQAQIAFLQGERKGQENLKKDLVRRIKMLEYALKQERAKYHKLKYGTELNQGDMKPPSYDSDEGNETEVQPQQNSQLMWKQGRQLLRQYLQEVGYTDTILDVKSKRVRALLGFSSDVTDREDDKNQDSVVNGTEAEVKETAMIAKSELTDSASVLDNFKFLESAAADFSDEDEDDDVDGREKSVIDTSTIVRKKALPDSGEDRDTKEALKEFDFLVTSEEGDNESRSAGDGTDWEKEDQCLMPEAWNVDQGVITKLKEQYKKERKGKKGVKRPNRSKLQDMLANLRDVDELPSLQPSVGSPSRPSSSRLPEHEINRADEVEALTFPPSSGKSFIMGADEALESELGLGELAGLTVANEADSLTYDIANNKDALRKTWNPKFTLRSHFDGIRALAFHPIEPVLITASEDHTLKMWNLQKTAPAKKSTSLDVEPIYTFRAHKGPVLCVVMSSNGEQCYSGGTDGLIQGWNTTNPNIDPYDSYDPSVLRGPLLGHTDAVWGLAYSAAHQRLLSCSADGTLRLWNTTEVAPALSVFNDTKELGIPASVDLVSSDPSHMVASFSKGYTSIFNMETQQRILTLESNVDTTANSSCQINRVISHPTLPISITAHEDRHIKFYDNNTGKLIHSMVAHLEAVTSLAVDPNGLYLMSGSHDCSIRLWNLESKTCIQEFTAHRKKFEESIHDVAFHPSKCYIASAGADALAKVFV
B2: PPP2R1B, P30154 1-601 (protein)
chain: MAGASELGTGPGAAGGDGDDSLYPIAVLIDELRNEDVQLRLNSIKKLSTIALALGVERTRSELLPFLTDTIYDEDEVLLALAEQLGNFTGLVGGPDFAHCLLPPLENLATVEETVVRDKAVESLRQISQEHTPVALEAYFVPLVKRLASGDWFTSRTSACGLFSVCYPRASNAVKAEIRQQFRSLCSDDTPMVRRAAASKLGEFAKVLELDSVKSEIVPLFTSLASDEQDSVRLLAVEACVSIAQLLSQDDLETLVMPTLRQAAEDKSWRVRYMVADRFSELQKAMGPKITLNDLIPAFQNLLKDCEAEVRAAAAHKVKELGENLPIEDRETIIMNQILPYIKELVSDTNQHVKSALASVIMGLSTILGKENTIEHLLPLFLAQLKDECPDVRLNIISNLDCVNEVIGIRQLSQSLLPAIVELAEDAKWRVRLAIIEYMPLLAGQLGVEFFDEKLNSLCMAWLVDHVYAIREAATNNLMKLVQKFGTEWAQNTIVPKVLVMANDPNYLHRMTTLFCINALSEACGQEITTKQMLPIVLKMAGDQVANVRFNVAKSLQKIGPILDTNALQGEVKPVLQKLGQDEDMDVKYFAQEAISVLALA
B3: STRIP2, Q9ULQ0 1-834 (protein)
chain: MEDPAAPGTGGPPANGNGNGGGKGKQAAPKGREAFRSQRRESEGSVDCPTLEFEYGDADGHAAELSELYSYTENLEFTNNRRCFEEDFKTQVQGKEWLELEEDAQKAYIMGLLDRLEVVSRERRLKVARAVLYLAQGTFGECDSEVDVLHWSRYNCFLLYQMGTFSTFLELLHMEIDNSQACSSALRKPAVSIADSTELRVLLSVMYLMVENIRLERETDPCGWRTARETFRTELSFSMHNEEPFALLLFSMVTKFCSGLAPHFPIKKVLLLLWKVVMFTLGGFEHLQTLKVQKRAELGLPPLAEDSIQVVKSMRAASPPSYTLDLGESQLAPPPSKLRGRRGSRRQLLTKQDSLDIYNERDLFKTEEPATEEEEESAGDGERTLDGELDLLEQDPLVPPPPSQAPLSAERVAFPKGLPWAPKVRQKDIEHFLEMSRNKFIGFTLGQDTDTLVGLPRPIHESVKTLKQHKYISIADVQIKNEEELEKCPMSLGEEVVPETPCEILYQGMLYSLPQYMIALLKILLAAAPTSKAKTDSINILADVLPEEMPITVLQSMKLGIDVNRHKEIIVKSISTLLLLLLKHFKLNHIYQFEYVSQHLVFANCIPLILKFFNQNILSYITAKNSISVLDYPCCTIQDLPELTTESLEAGDNSQFCWRNLFSCINLLRLLNKLTKWKHSRTMMLVVFKSAPILKRALKVKQAMLQLYVLKLLKLQTKYLGRQWRKSNMKTMSAIYQKVRHRMNDDWAYGNDIDARPWDFQAEECTLRANIEAFNSRRYDRPQDSEFSPVDNCLQSVLGQRLDLPEDFHYSYELWLEREVFSQPICWEELLQNH
B4: MOB4 (protein, UniProt Q9Y3A3 1-225)
chain: MVMAEGTAVLRRNRPGTKAQDFYNWPDESFDEMDSTLAVQQYIQQNIRADCSNIDKILEPPEGQDEGVWKYEHLRQFCLELNGLAVKLQSECHPDTCTQMTATEQWIFLCAAHKTPKECPAIDYTRHTLDGAACLLNSNKYFPSRVSIKESSVAKLGSVCRRIYRIFSHAYFHHRQIFDEYENETFLCHRFTKFVMKYNLMSKDNLIVPILEEEVQNSVSGESEA
B5: PPP2R2D (protein, UniProt Q66LE6 1-453)
chain: MAGAGGGGCPAGGNDFQWCFSQVKGAIDEDVAEADIISTVEFNYSGDLLATGDKGGRVVIFQREQENKSRPHSRGEYNVYSTFQSHEPEFDYLKSLEIEEKINKIRWLPQQNAAHFLLSTNDKTIKLWKISERDKRAEGYNLKDEDGRLRDPFRITALRVPILKPMDLMVEASPRRIFANAHTYHINSISVNSDHETYLSADDLRINLWHLEITDRSFNIVDIKPANMEELTEVITAAEFHPHQCNVFVYSSSKGTIRLCDMRSSALCDRHSKFFEEPEDPSSRSFFSEIISSISDVKFSHSGRYMMTRDYLSVKVWDLNMESRPVETHQVHEYLRSKLCSLYENDCIFDKFECCWNGSDSAIMTGSYNNFFRMFDRDTRRDVTLEASRESSKPRASLKPRKVCTGGKRRKDEISVDSLDFNKKILHTAWHPVDNVIAVAATNNLYIFQDKIN
B6: PPP2R3B (protein, UniProt Q9Y5P8 1-575)
chain: MPPGKVLQPVLKMKVDELFLYWLSEASTQRMLQDCLRRIKAPGRDQPTPGDGEQPGAWPTAPLAAPRPSGLEPPGTPGPGPALPLGAASSPRNAPHVRGTRRSAGTRVVQTRKEEPLPPATSQSIPTFYFPRGRPQDSVNVDAVISKIESTFARFPHERATMDDMGLVAKACGCPLYWKGPLFYGAGGERTGSVSVHKFVAMWRKILQNCHDDAAKFVHLLMSPGCNYLVQEDFVPFLQDVVNTHPGLSFLKEASEFHSRYITTVIQRIFYAVNRSWSGRITCAELRRSSFLQNVALLEEEADINQLTEFFSYEHFYVIYCKFWELDTDHDLLIDADDLARHNDHALSTKMIDRIFSGAVTRGRKVQKEGKISYADFVWFLISEEDKKTPTSIEYWFRCMDLDGDGALSMFELEYFYEEQCRRLDSMAIEALPFQDCLCQMLDLVKPRTEGKITLQDLKRCKLANVFFDTFFNIEKYLDHEQKEQISLLRDGDSGGPELSDWEKYAAEEYDILVAEETAGEPWEDGFEAELSPVEQKLSALRSPLAQRPFFEAPSPLGAVDLYEYACGDEDLEPL
B7: STRN4 (protein, UniProt Q9NRL3 1-753)
chain: MMEERAAAAVAAAASSCRPLGSGAGPGPTGAAPVSAPAPGPGPAGKGGGGGGSPGPTAGPEPLSLPGILHFIQHEWARFEAEKARWEAERAELQAQVAFLQGERKGQENLKTDLVRRIKMLEYALKQERAKYHKLKFGTDLNQGEKKADVSEQVSNGPVESVTLENSPLVWKEGRQLLRQYLEEVGYTDTILDMRSKRVRSLLGRSLELNGAVEPSEGAPRAPPGPAGLSGGESLLVKQIEEQIKRNAAGKDGKERLGGSVLGQIPFLQNCEDEDSDEDDELDSVQHKKQRVKLPSKALVPEMEDEDEEDDSEDAINEFDFLGSGEDGEGAPDPRRCTVDGSPHELESRRVKLQGILADLRDVDGLPPKVTGPPPGTPQPRPHEDVFIMDTIGGGEVSLGDLADLTVTNDNDLSCDLSDSKDAFKKTWNPKFTLRSHYDGIRSLAFHHSQSALLTASEDGTLKLWNLQKAVTAKKNAALDVEPIHAFRAHRGPVLAVAMGSNSEYCYSGGADACIHSWKIPDLSMDPYDGYDPSVLSHVLEGHGDAVWGLAFSPTSQRLASCSADGTVRIWDPSSSSPACLCTFPTASEHGVPTSVAFTSTEPAHIVASFRSGDTVLYDMEVGSALLTLESRGSSGPTQINQVVSHPNQPLTITAHDDRGIRFLDNRTGKPVHSMVAHLDAVTCLAVDPNGAFLMSGSHDCSLRLWSLDNKTCVQEITAHRKKHEEAIHAVACHPSKALIASAGADALAKVFV
B8: WAVE3 (protein, UniProt Q9UPY6 1-502)
chain: MPLVKRNIEPRHLCRGALPEGITSELECVTNSTLAAIIRQLSSLSKHAEDIFGELFNEANNFYIRANSLQDRIDRLAVKVTQLDSTVEEVSLQDINMKKAFKSSTVQDQQVVSKNSIPNPVADIYNQSDKPPPLNILTPYRDDKKDGLKFYTDPSYFFDLWKEKMLQDTEDKRKEKRRQKEQKRIDGTTREVKKVRKARNRRQEWNMMAYDKELRPDNRLSQSVYHGASSEGSLSPDTRSHASDVTDYSYPATPNHSLHPQPVTPSYAAGDVPPHGPASQAAEHEYRPPSASARHMALNRPQQPPPPPPPQAPEGSQASAPMAPADYGMLPAQIIEYYNPSGPPPPPPPPVIPSAQTAFVSPLQMPMQPPFPASASSTHAAPPHPPSTGLLVTAPPPPGPPPPPPGPPGPGSSLSSSPMHGPPVAEAKRQEPAQPPISDARSDLLAAIRMGIQLKKVQEQREQEAKREPVGNDVATILSRRIAVEYSDSDDDSEFDENDWSD

For the first assay, the target named is FLAG-GFP PPP2R1A (UniProt P30153). Put plainly: affinity purification with mass spectrometry + co-IP; Sequential FLAG then PC (Protein C matrix, EGTA elution) purification from MCF10A cells stably expressing FLAG-GFP PPP2R1A and PC-HA BRK1; mass spectrometry, silver stain and western blots.
Conditions: not given
With B1, the binding result was “binds”.

The target in the next assay is FLAG-GFP PPP2R1A, P30153. Put plainly: affinity purification with mass spectrometry; Tandem affinity purification (FLAG then GFP) of FLAG-GFP PPP2R1A from stable MCF10A and MDA-MB-231 cells; XB-NP40 lysis buffer, 4 °C; FLAG-GFP as control. As to conditions: remark: other sources report otherwise.
B2: the binding result was “binds”. On the same count and under the same terms, the entry for B3 is “binds”.

A further assay deals with FLAG-GFP PPP2R1A (UniProt P30153). The assay is described as above.
Conditions: not given
For the molecule B4, the binding entry is listed as “binds”. Same read-out and setting: under B1 stands “binds”; under B5, “binds”; under B6, “binds”. Regarding B7, the binding entry is listed as “binds”. Same read-out and setting: under B8 stands “no binding”.

The record behind these values is publication PMC10272187.
